Results reported in patent US20190233543A1.
These are yes or no findings as the source states them, for the method shown. Some binding calls cover weakened binding; strength is not graded here.

The chains behind the UniProt entries cited, without tags or fusion partners. Residues count along the entry.
UniProt Q8NBP7, residues 31-692: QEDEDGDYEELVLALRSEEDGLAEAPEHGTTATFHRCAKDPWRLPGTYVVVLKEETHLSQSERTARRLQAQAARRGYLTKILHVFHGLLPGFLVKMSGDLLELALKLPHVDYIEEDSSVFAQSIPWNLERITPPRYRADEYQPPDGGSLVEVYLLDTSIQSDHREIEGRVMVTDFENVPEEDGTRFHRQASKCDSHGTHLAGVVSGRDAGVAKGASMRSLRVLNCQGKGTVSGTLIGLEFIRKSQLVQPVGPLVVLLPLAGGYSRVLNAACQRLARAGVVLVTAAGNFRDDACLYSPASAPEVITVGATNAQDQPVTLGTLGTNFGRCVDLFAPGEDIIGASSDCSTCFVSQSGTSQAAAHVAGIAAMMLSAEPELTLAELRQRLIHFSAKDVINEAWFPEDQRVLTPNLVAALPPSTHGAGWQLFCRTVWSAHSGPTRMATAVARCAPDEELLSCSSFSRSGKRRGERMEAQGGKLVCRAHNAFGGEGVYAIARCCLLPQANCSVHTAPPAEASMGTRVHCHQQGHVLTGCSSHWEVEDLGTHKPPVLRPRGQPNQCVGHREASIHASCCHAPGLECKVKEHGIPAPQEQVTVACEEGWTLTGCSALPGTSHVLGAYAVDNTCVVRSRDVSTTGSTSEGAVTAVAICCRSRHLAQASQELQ

Assays:
PCSK9 [1] = target: PCSK9 (UniProt Q8NBP7); assay: potency assay by binding to PCSK9 (FIG. 4)
PCSK9 [2] = target: PCSK9 (UniProt Q8NBP7); assay: ELISA, PCSK9 coated as capture reagent, anti-human IgG HRP detection

Row | Binder | binding (PCSK9 [1]) | binding (PCSK9 [2])
1 | AK (82 94 95) mutant (antibody) heavy: EVQLVQSGAEVKKPGASVKVSCKASGYTLTSYGISWVRQAPGQGLEWMGWVSFYNGNTNYAQKLQGRGTMTRDPSTSTAYMELSRLRSDDTAVYYCARGYGMDVWGQGTTVTVSSASTKGPSVFPLAPCSRSTSESTAALGCLVKDYFPEPVTVSWNSGALTSGVHTFPAVLQSSGLYSLSSVVTVPSSNFGTQTYTCNVDHKPSNTKVDKTVERKCCVECPPCPAPPVAGPSVFLFPPKPKDTLMISRTPEVTCVVVDVSHEDPEVQFNWYVDGVEVHNAKTKPREEQFNSTFRVVSVLTVVHQDWLNGKEYKCKVSNKGLPAPIEKTISKTKGQPREPQVYTLPPSREEMTKNQVSLTCLVKGFYPSDIAVEWESNGQPENNYKTTPPMLDSDGSFFLYSKLTVDKSRWQQGNVFSCSVMHEALHNHYTQKSLSLSPGK light: ESALTQPASVSGSPGQSITISCTGTSSDVGGYNSVSWYQQHPGKAPKLMIYEVSNRPSGVSNRFSGSKSGNTASLTISGLQAEDEADYYCNSYTSTSMVFGGGTKLTVLGQPKAAPSVTLFPPSSEELQANKATLVCLISDFYPGAVTVAWKADSSPVKAGVETTTPSKQSNNKYAASSYLSLTPEQWKSHRSYSCQVTHEGSTVEKTVAPTECS | binds | binds
2 | AK Fab/S440K double mutant (antibody) heavy: EVQLVQSGAEVKKPGASVKVSCKASGYTLTSYGISWVRQAPGQGLEWMGWVSFYNGNTNYAQKLQGRGTMTRDPSTSTAYMELSRLRSDDTAVYYCARGYGMDVWGQGTTVTVSSASTKGPSVFPLAPCSRSTSESTAALGCLVKDYFPEPVTVSWNSGALTSGVHTFPAVLQSSGLYSLSSVVTVPSSNFGTQTYTCNVDHKPSNTKVDKTVERKCCVECPPCPAPPVAGPSVFLFPPKPKDTLMISRTPEVTCVVVDVSHEDPEVQFNWYVDGVEVHNAKTKPREEQFNSTFRVVSVLTVVHQDWLNGKEYKCKVSNKGLPAPIEKTISKTKGQPREPQVYTLPPSREEMTKNQVSLTCLVKGFYPSDIAVEWESNGQPENNYKTTPPMLDSDGSFFLYSKLTVDKSRWQQGNVFSCSVMHEALHNHYTQKKLSLSPGK light: ESALTQPASVSGSPGQSITISCTGTSSDVGGYNSVSWYQQHPGKAPKLMIYEVSNRPSGVSNRFSGSKSGNTASLTISGLQAEDEADYYCNSYTSTSMVFGGGTKLTVLGQPKAAPSVTLFPPSSEELQANKATLVCLISDFYPGAVTVAWKADSSPVKAGVETTTPSKQSNNKYAASSYLSLTPEQWKSHRSYSCQVTHEGSTVEKTVAPTECS |  | binds
